The whole screen tested about 140,000 compounds, of which about 4,300 (3.1%) were called active. Inconclusive results, whose numbers are uncertain, are shown with a selection of clear calls.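 How the source made its calls: active means readout at or below -70, meaning at least 70% loss of cells showing the perinucleolar compartment, a nuclear body marking cancer cells; inconclusive means readout between -30 and a set limit; inactive means the rest.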
Test: High Content Assay for Compounds that inhibit the Assembly of the Perinucleolar Compartment;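 further: plate controls were DMSO wells for no effect and camptothecin positive control wells for full effect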
Details: PC3M PTB-GFP, PNC prevalence imaging, 16 h; at 10 µM; stronger effect = lower value
Summary of the method: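 Compounds are pinned in duplicate onto adhered PC3M cells stably expressing GFP-tagged PTB and incubated 16 h at 37 C. Cells are then fixed, nuclei stained with Hoechst, and PNC-positive cells counted.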

Structure (SMILES)	activity change (PNC), negative = inhibition
c1ccc2c(c1)CCN(c1nc3ccccc3n3cnnc13)C2	inconclusive: -31.3%
Cc1ccccc1SCc1noc(C(=O)NC(C)C)c1C(=O)O	active: -90.7%
CCCN1C(=O)/C(=C\c2ccncc2)SC1=Nc1ccccc1	inconclusive: -49.8%
C=CCn1c(NCCc2ccccc2)nc2c1c(=O)n(C)c(=O)n2C	inconclusive: -42%
CCn1c(C)nc2cc(C(=O)NNS(=O)(=O)c3c(C)c(C)cc(C)c3C)ccc21	inconclusive: -32.7%
COCCCNCCCCOc1ccc(Br)cc1Cl	inconclusive: -30.9%
COc1cc(CN2CC(=O)N(c3ccc(C)c(C)c3)C2=S)cc(OC)c1OC	inactive: 60.4%
O=C1CSC(c2cccc(Cl)c2Cl)N1c1ccccn1 (configuration not stated)	inconclusive: -47.1%
CCCC1=C(C(=O)OCC)C(c2ccc(O)cc2)n2ncnc2N1 (configuration not stated)	inconclusive: -73.6%
Cc1ccc(N=Nc2c(N)[nH]n3c(=O)cc(C)nc23)cc1	inconclusive: -33.9%
O=C(c1cc2c(s1)CCCC2)N1CCN(Cc2ccc3c(c2)OCO3)CC1	inactive: 11.9%
CC(C)(C)c1cc2cccnc2n1Cc1cccc(Cl)c1	inconclusive: -38.6%
CCn1c(=O)cc(OCC(=O)N(C)C2CCCCC2)c2ccccc21	inactive: -19%
CCC1CCCCN1C(=O)CSc1nnc(-c2cccs2)o1 (configuration not stated)	inactive: -15.3%
COc1ccc2nc(NC(=O)Nc3ccccc3)sc2c1	inactive: 2.26%
Cc1ccc(S(=O)(=O)N2CCOCC2)cc1C(=O)NC(=S)N(Cc1ccccc1)C(C)C	inconclusive: -49.6%
Cc1n[nH]c(C)c1C(=O)CC1(O)C(=O)N(CCc2ccccc2)c2ccc(Cl)cc21 (configuration not stated)	inactive: 23.6%
CCOC(=O)N1CCN(C(=O)c2nc3ccccc3s2)CC1	inconclusive: -51.4%
CCN(CC)C(=O)CSc1nc2c(sc(=S)n2-c2ccccc2)c(=O)n1Cc1ccco1	inactive: 44.8%
O=C(NCc1ccc(Cl)cc1)c1ccc(COCC(F)(F)F)o1	inconclusive: -36.5%
CCc1c(C)sc(NC(=O)CSc2nc3c(c(C(F)(F)F)n2)CCc2ccccc2-3)c1C#N	inactive: -28.8%
COc1ccccc1CNC(=O)c1ccc(Br)o1	inconclusive: -40.4%
CC(C)O/C(=N\S(=O)(=O)c1ccc(Cl)cc1)c1ccccc1	inconclusive: -46.1%

Three structures already listed, sorted by heavy-atom count, low to high:
Structure (SMILES)	activity change (PNC), negative = inhibition
O=C1CSC(c2cccc(Cl)c2Cl)N1c1ccccn1 (configuration not stated)	inconclusive: -47.1%
O=C(NCc1ccc(Cl)cc1)c1ccc(COCC(F)(F)F)o1	inconclusive: -36.5%
CCn1c(C)nc2cc(C(=O)NNS(=O)(=O)c3c(C)c(C)cc(C)c3C)ccc21	inconclusive: -32.7%

The list continues:

Structure (SMILES)	activity change (PNC), negative = inhibition
CC(=O)Oc1ccc(C(=O)Cc2ccc3ccccc3n2)c(O)c1C	inconclusive: -41.8%
Cc1[nH]c2ccccc2c1C(=O)COC(=O)Cn1c(C(F)(F)F)nc2ccccc21	active: -105%
CCCSc1nnc2n(N)c(=O)c3ccccc3n12	inconclusive: -40.8%
CCc1nnc(-n2nc(C)cc2-c2ccccc2)n1N	inconclusive: -53.6%
CCOC(=O)N1CCC(N2CCN(S(=O)(=O)c3ccc(NC(C)=O)cc3)CC2)CC1	inconclusive: -76.2%
CCCCOc1ccc(NC(=O)CSc2nnnn2C)cc1	inactive: 6.77%
C=CS(=O)(=O)c1ccc(Oc2ccc(S(=O)(=O)C=C)cc2)cc1	active: -134%
COc1ccc2nc(SCC(=O)NC(C)C)[nH]c2c1	inconclusive: -42.3%
CCOC(=O)N1CCN(C(=O)C2CCN(CC3CCCCC3)CC2)CC1	active: -114%
Cc1ccc(N(c2ncnc(N)c2[N+](=O)[O-])C2CCCCC2)cc1	inconclusive: -59%
CCOC(=O)C1CCN(Cc2oc(CO)cc(=O)c2O)CC1	inconclusive: -39.1%
COC(=O)c1ccc(NC(=O)CSCc2ccccc2C)cc1	inactive: 13%
CCOC(=O)NCc1ccc2c(c1)OCO2	inconclusive: -65.8%
O=C(/C=C/c1ccccc1Cl)NCc1ccco1	inconclusive: -31.3%
Cc1noc(NS(=O)(=O)c2ccc(NC(=O)CSc3ncccn3)cc2)c1C	inconclusive: -35.4%
Cc1cc(NC(=O)CSc2nc(C3CCCCC3)nc3ccccc23)no1	inconclusive: -37.4%
CCC(=O)N1CCN(c2ccc(NC(=O)c3cc4ccccc4o3)cc2Cl)CC1	inconclusive: -76.6%
O=C(CSCc1ccc(F)cc1)Nc1ccccc1C(=O)N1CCOCC1	inconclusive: -34.8%
CCS(=O)(=O)N1CCN(c2cccc(C)c2C)CC1	inconclusive: -79.1%
COc1ccc(-c2ncccc2OC(=O)C23CC4CC(CC(C4)C2)C3)cc1	inconclusive: -59.9%
COc1ccc(/C=C2/C(=O)N=C(N)N2C)cc1OC	inactive: 17.5%
Cc1cccc(C(=O)Nc2scc(CC(C)C)c2C(=O)O)c1	active: -98.3%
CCCNc1cc(C)c(C#N)c2nc3ccccc3n12	inconclusive: -68.7%

A draw from above in order of molecular weight, largest number first:
Structure (SMILES)	activity change (PNC), negative = inhibition
CCc1c(C)sc(NC(=O)CSc2nc3c(c(C(F)(F)F)n2)CCc2ccccc2-3)c1C#N	inactive: -28.8%
CCN(CC)C(=O)CSc1nc2c(sc(=S)n2-c2ccccc2)c(=O)n1Cc1ccco1	inactive: 44.8%
CCOC(=O)N1CCC(N2CCN(S(=O)(=O)c3ccc(NC(C)=O)cc3)CC2)CC1	inconclusive: -76.2%
Cc1[nH]c2ccccc2c1C(=O)COC(=O)Cn1c(C(F)(F)F)nc2ccccc21	active: -105%
CCC(=O)N1CCN(c2ccc(NC(=O)c3cc4ccccc4o3)cc2Cl)CC1	inconclusive: -76.6%
O=C(CSCc1ccc(F)cc1)Nc1ccccc1C(=O)N1CCOCC1	inconclusive: -34.8%
Cc1cc(NC(=O)CSc2nc(C3CCCCC3)nc3ccccc23)no1	inconclusive: -37.4%
CCOC(=O)N1CCN(C(=O)C2CCN(CC3CCCCC3)CC2)CC1	active: -114%
COc1ccc(-c2ncccc2OC(=O)C23CC4CC(CC(C4)C2)C3)cc1	inconclusive: -59.9%
C=CS(=O)(=O)c1ccc(Oc2ccc(S(=O)(=O)C=C)cc2)cc1	active: -134%
O=C(NCc1ccc(Cl)cc1)c1ccc(COCC(F)(F)F)o1	inconclusive: -36.5%
CC(C)O/C(=N\S(=O)(=O)c1ccc(Cl)cc1)c1ccccc1	inconclusive: -46.1%
COC(=O)c1ccc(NC(=O)CSCc2ccccc2C)cc1	inactive: 13%
Cc1ccc(N(c2ncnc(N)c2[N+](=O)[O-])C2CCCCC2)cc1	inconclusive: -59%
CCCCOc1ccc(NC(=O)CSc2nnnn2C)cc1	inactive: 6.77%
Cc1cccc(C(=O)Nc2scc(CC(C)C)c2C(=O)O)c1	active: -98.3%
CCOC(=O)C1CCN(Cc2oc(CO)cc(=O)c2O)CC1	inconclusive: -39.1%
COc1ccccc1CNC(=O)c1ccc(Br)o1	inconclusive: -40.4%
CCS(=O)(=O)N1CCN(c2cccc(C)c2C)CC1	inconclusive: -79.1%
COc1ccc2nc(SCC(=O)NC(C)C)[nH]c2c1	inconclusive: -42.3%
CCCSc1nnc2n(N)c(=O)c3ccccc3n12	inconclusive: -40.8%
CCCNc1cc(C)c(C#N)c2nc3ccccc3n12	inconclusive: -68.7%
O=C(/C=C/c1ccccc1Cl)NCc1ccco1	inconclusive: -31.3%
COc1ccc(/C=C2/C(=O)N=C(N)N2C)cc1OC	inactive: 17.5%
CCOC(=O)NCc1ccc2c(c1)OCO2	inconclusive: -65.8%

Following part.

Structure (SMILES)	activity change (PNC), negative = inhibition
Cn1ncc(Br)c1C(=O)Nc1ccc(Cl)cn1	inconclusive: -78.4%
Nc1nc(-c2ccco2)nn1C(=O)c1cccnc1	inconclusive: -32.8%
COC(=O)c1ccc(N)c(N=CC2=C(O)CC(C)(C)CC2=O)c1	active: -109%
CCOP(=O)(c1ccccc1)C(O)c1ccc(F)cc1 (configuration not stated)	inconclusive: -75.3%
COc1cccc2c(O)cc(=O)n(C)c12	inactive: 3.35%
CCOc1ccccc1C(=O)NC(C)c1ccc2c(c1)OCO2 (configuration not stated)	active: -103%
Cc1nc(=O)c(-c2ccccc2)c(C)n1-c1ccc(S(N)(=O)=O)cc1	inconclusive: -36.4%
Cc1onc(-c2ccccc2)c1C(=O)NNC(=S)NC(=O)/C=C/c1ccccc1	inconclusive: -57.2%
CCC(C)NC(=O)c1ccccc1NC(=O)/C(=C/c1ccc(OC)cc1)c1ccccc1 (configuration not stated)	inconclusive: -49.6%
CCOc1ccc(C(O)C(CN2CCOCC2)c2ccccc2)cc1 (configuration not stated)	inconclusive: -52.1%
Cc1nn(C(C)(C)C)c(N)c1-c1ccccc1	inactive: 94.7%
COc1cc(/C=N/NC(=S)Nc2cccc(S(=O)(=O)N(C)C)c2)cc(OC)c1O	inconclusive: -32.8%
CCCCCCCC(=O)OC(CN1CCCCC1)CN1CCCC1=O (configuration not stated)	inconclusive: -41%
COCCCNC(=O)c1c(N)n(/N=C/c2cccs2)c2nc3ccccc3nc12	inconclusive: -50.9%
COc1ccc(C2NC(C(=O)O)Cc3c2[nH]c2ccccc32)cc1OC (configuration not stated)	active: -97.7%
O=C(CC1S/C(=N\S(=O)(=O)c2ccc(F)cc2)N(c2ccccc2)C1=O)Nc1ccccc1 (configuration not stated)	inactive: -14.5%
CC(C)Cc1nc2sc3c(=O)[nH]cnc3c2c2c1CCC2	inconclusive: -30.8%
COc1cc(-c2nc(-c3ccccc3)c(-c3cccs3)[nH]2)cc(OC)c1OC	inconclusive: -32.6%
O=C(CCN1C(=O)c2ccccc2S1(=O)=O)N1CCN(c2ccccc2)CC1	inconclusive: -52.3%
CCN(CC)S(=O)(=O)c1ccc(Cl)c(C(=O)Nc2ccc(Cl)cc2[N+](=O)[O-])c1	inactive: -27.5%
C=CCSc1nc2sc(C)c(C)c2c(=O)n1CC=C	inconclusive: -30.9%
CCOc1ccccc1N1C(=O)c2ccc(C(=O)Nc3cccnc3)cc2C1=O	inactive: 0.357%
CCc1cc2c(N[C@@H](C)C(=O)O)ncnc2s1	inconclusive: -36.5%

Structure (SMILES)	activity change (PNC), negative = inhibition
COc1cccc(/C=N/NC(=O)c2[nH]c(C)c(C(=O)N/N=C/c3cccc(OC)c3)c2C)c1	inconclusive: -32.6%
c1ccc2c(c1)nc1sccn12	inconclusive: -44.6%
CCC(C)(C)n1nnnc1C(c1cc2cc(OC)ccc2[nH]c1=O)N1CCc2ccccc21 (configuration not stated)	inconclusive: -48.6%
COc1ccc(S(=O)(=O)Nc2ccc(N3CCOCC3)cc2)cc1Br	inactive: 9.26%
CCOC(=O)/C(C#N)=C\C=C1C=CN(C)C=C1	inactive: -10.8%
NC(=O)CNC(=O)[C@@H]1CC2(CC(c3ccc(Cl)cc3)=NO2)CN1C(=O)c1ccccc1 (some centres not stated)	inactive: -24.2%
COc1ccc(C(CC(=O)O)NC(=O)c2cccs2)cc1 (configuration not stated)	active: -84.6%
Cc1ccccc1OCC(=O)N(Cc1nc(-c2ccccc2)no1)C(C)C	inconclusive: -65.9%
CCOC(=O)COc1ccc(S(=O)(=O)NCc2ccncc2)cc1	inconclusive: -73.6%
c1ccc(Cn2nnc3c(N4CCCC4)ncnc32)cc1	inactive: -21.8%
Cc1ccc(Oc2nnc(-c3ccc(C)cc3)c3ccccc23)cc1	inconclusive: -52%
S=C(Nc1cccc(Cl)c1)N1CCN(Cc2ccccc2)CC1	active: -80.1%
O=C(CCSc1ccc(Cl)cc1)NC12CC3CC(CC(C3)C1)C2	inactive: -8.1%
COc1cc(NC(=S)NC(C)=O)ccc1NC(=O)C(C)C	inconclusive: -30.3%
CCOc1ccc(CCNC(=O)Cn2c(-c3nonc3N)nc3ccccc32)cc1OCC	inconclusive: -68.9%
CCOC(=O)C1CCCN(C(=O)C2c3ccccc3Oc3ccccc32)C1 (configuration not stated)	inconclusive: -41.9%
COc1ccccc1NC(=O)c1nnn(CC(=O)Nc2ccccc2)c1N	inconclusive: -64.1%
O=C(NC1CCSC1=O)c1ccc(Oc2cccc(C(F)(F)F)c2)nc1 (configuration not stated)	inconclusive: -45.9%
O=C(OCc1nc2ccccc2s1)C1CCN(S(=O)(=O)c2cccs2)CC1	inconclusive: -33.1%
O=C(c1ccco1)N1CCN(C(=O)C2CCCO2)CC1 (configuration not stated)	active: -100%
CSCCC(NS(=O)(=O)c1ccc(Cl)cc1)C(=O)OCc1c(Cl)cccc1Cl (configuration not stated)	inconclusive: -31%
Nc1c(C(=O)c2ccc(Br)s2)oc2ccccc12	inconclusive: -54.3%
Cn1c(SCC(=O)N2CCc3ccccc3C2)nnc1-c1cccs1	inconclusive: -39.1%

— PubChem BioAssay AID2417 (National Center for Advancing Translational Sciences (NCATS), 2010)
